Laboratory results from publication PMC11465927.
These are yes or no findings as the source states them, for the method shown. A result given as binding can be weak or reduced; the word gives no strength.

Legend:
[1] = molecular target: Glyma.07G192800 (soybean (Glycine max)) (UniProt K7L2N5); experiment: two-hybrid; yeast two-hybrid; baits in pGBKT7 (BD-TPS), preys in pGADT7 (AD-TPSs or AD-p450s); negative controls with empty pGBKT7 or empty pGADT7; positive control AD-T + BD-53
[2] = molecular target: Glyma.15G263300 (soybean (Glycine max)); experiment: as above

Row | binding [1] | binding [2] | Substance
1 | binds |  | Glyma.12G140600 (from UniProt K7LUR1)
2 |  | binds | Glyma.20G074400 (from UniProt K7N247)
3 | binds |  | P450 protein Glyma.09G029400 (from UniProt A0A0R0I304)
